Consider four molecules from PMC10092763.

Sequences of proteins named here, by UniProt entry; tags and fusion partners are left off.
UniProt P50750: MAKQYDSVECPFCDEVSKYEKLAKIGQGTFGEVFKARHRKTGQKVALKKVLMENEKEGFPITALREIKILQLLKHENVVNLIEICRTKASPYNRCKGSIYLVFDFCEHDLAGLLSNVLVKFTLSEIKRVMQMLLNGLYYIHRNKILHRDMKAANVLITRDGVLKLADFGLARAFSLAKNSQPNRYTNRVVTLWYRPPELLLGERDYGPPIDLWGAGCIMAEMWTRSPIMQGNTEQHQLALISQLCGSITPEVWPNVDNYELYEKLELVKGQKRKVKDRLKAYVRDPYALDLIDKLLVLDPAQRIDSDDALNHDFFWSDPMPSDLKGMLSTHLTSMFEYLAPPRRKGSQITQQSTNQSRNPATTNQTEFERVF
UniProt P42568: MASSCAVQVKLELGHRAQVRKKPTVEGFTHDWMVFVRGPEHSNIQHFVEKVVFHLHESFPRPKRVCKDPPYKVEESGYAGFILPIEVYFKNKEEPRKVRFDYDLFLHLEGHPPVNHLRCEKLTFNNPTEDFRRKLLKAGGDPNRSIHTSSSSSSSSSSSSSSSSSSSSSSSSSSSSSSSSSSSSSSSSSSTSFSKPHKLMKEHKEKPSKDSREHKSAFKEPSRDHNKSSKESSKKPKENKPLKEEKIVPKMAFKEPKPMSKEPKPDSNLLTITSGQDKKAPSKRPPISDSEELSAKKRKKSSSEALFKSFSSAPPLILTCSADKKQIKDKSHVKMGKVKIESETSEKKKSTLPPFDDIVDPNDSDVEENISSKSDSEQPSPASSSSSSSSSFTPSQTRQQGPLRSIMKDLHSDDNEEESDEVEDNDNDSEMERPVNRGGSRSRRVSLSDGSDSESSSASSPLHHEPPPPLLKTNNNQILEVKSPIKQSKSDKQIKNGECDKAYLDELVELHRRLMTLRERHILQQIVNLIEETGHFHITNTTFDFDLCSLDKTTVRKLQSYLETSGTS
UniProt Q02962: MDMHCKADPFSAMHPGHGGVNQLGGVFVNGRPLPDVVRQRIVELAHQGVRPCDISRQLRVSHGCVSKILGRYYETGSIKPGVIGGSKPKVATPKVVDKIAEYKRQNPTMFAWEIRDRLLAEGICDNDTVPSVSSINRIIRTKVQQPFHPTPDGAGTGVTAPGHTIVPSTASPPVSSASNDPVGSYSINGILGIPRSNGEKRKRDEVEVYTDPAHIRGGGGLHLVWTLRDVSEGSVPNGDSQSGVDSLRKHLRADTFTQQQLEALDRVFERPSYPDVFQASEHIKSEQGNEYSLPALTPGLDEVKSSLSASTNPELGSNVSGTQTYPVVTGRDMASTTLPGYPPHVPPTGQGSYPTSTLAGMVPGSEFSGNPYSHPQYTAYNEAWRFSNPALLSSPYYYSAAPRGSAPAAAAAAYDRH

Sequences and labels used below:
B1: MLLT1 (protein, UniProt Q03111 1-559)
chain: MDNQCTVQVRLELGHRAQLRKKPTTEGFTHDWMVFVRGPEQCDIQHFVEKVVFWLHDSFPKPRRVCKEPPYKVEESGYAGFIMPIEVHFKNKEEPRKVCFTYDLFLNLEGNPPVNHLRCEKLTFNNPTTEFRYKLLRAGGVMVMPEGADTVSRPSPDYPMLPTIPLSAFSDPKKTKPSHGSKDANKESSKTSKPHKVTKEHRERPRKDSESKSSSKELEREQAKSSKDTSRKLGEGRLPKEEKAPPPKAAFKEPKMALKETKLESTSPKGGPPPPPPPPPRASSKRPATADSPKPSAKKQKKSSSKGSRSAPGTSPRTSSSSSFSDKKPAKDKSSTRGEKVKAESEPREAKKALEVEESNSEDEASFKSESAQSSPSNSSSSSDSSSDSDFEPSQNHSQGPLRSMVEDLQSEESDEDDSSSGEEAAGKTNPGRDSRLSFSDSESDNSADSSLPSREPPPPQKPPPPNSKVSGRRSPESCSKPEKILKKGTYDKAYTDELVELHRRLMALRERNVLQQIVNLIEETGHFNVTNTTFDFDLFSLDETTVRKLQSCLEAVAT

These are yes or no findings as the source states them, for the method shown. Binding seen in cells or lysates may run through a third protein. Here binding means that the protein was enriched with, or labelled near, the bait; the list need not be complete. Tags and fused reporters may be left off the sequences shown.

In this assay the target is T1, FLAG-tagged AFF4 (human) (UniProt Q9UHB7).
T1 sequence: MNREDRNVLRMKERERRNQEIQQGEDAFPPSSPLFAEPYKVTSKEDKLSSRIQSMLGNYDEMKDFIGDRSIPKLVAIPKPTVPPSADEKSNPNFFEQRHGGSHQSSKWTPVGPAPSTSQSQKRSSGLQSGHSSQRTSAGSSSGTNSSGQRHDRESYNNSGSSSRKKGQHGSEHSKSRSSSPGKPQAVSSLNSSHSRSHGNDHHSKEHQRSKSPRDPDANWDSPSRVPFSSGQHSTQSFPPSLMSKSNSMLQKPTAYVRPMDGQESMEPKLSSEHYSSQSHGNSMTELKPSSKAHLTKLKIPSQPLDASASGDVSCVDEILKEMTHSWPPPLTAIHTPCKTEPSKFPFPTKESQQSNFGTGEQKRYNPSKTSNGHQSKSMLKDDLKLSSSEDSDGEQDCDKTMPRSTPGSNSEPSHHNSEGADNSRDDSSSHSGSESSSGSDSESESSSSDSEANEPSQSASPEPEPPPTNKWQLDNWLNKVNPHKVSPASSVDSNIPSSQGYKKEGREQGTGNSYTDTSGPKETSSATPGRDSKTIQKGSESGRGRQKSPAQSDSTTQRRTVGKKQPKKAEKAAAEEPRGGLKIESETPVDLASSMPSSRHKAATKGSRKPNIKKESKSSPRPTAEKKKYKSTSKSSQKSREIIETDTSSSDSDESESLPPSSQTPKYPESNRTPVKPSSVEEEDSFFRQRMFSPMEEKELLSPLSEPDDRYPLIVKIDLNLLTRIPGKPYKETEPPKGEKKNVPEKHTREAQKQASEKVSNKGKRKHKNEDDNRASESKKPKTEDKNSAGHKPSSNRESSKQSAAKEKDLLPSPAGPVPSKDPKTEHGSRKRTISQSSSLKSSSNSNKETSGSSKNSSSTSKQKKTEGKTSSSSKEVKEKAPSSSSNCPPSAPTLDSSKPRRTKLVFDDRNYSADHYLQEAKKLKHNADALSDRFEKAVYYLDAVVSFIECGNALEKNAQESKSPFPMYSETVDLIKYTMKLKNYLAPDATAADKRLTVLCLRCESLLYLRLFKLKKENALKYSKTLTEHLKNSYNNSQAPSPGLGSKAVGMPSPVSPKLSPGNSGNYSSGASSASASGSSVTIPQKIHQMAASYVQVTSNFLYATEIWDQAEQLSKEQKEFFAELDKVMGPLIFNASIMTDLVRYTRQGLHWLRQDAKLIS
Briefly: affinity purification with mass spectrometry; FLAG-AFF4 immunoprecipitated from transfected PANC-1 or BxPC-3 cells, FLAG/pCDH empty vector as control; associated proteins identified by LC-MS/MS.
“CDK9 (from UniProt P50750 1-372) (enzyme)”: the binding entry is “binds”.

Regarding MLLT3 (from UniProt P42568 1-568), the binding result was “binds”. Under PAX2 (from UniProt Q02962 1-417) stands “binds”; under B1, “binds”.
